# Some of the results follow.
# Protein sequences, listed by entry. Tags and fused reporters are not part of them. Lines headed by an entry give the natural chain unless they say otherwise; changes in a name come on top.
# UniProt O43432, whole entry, looked up: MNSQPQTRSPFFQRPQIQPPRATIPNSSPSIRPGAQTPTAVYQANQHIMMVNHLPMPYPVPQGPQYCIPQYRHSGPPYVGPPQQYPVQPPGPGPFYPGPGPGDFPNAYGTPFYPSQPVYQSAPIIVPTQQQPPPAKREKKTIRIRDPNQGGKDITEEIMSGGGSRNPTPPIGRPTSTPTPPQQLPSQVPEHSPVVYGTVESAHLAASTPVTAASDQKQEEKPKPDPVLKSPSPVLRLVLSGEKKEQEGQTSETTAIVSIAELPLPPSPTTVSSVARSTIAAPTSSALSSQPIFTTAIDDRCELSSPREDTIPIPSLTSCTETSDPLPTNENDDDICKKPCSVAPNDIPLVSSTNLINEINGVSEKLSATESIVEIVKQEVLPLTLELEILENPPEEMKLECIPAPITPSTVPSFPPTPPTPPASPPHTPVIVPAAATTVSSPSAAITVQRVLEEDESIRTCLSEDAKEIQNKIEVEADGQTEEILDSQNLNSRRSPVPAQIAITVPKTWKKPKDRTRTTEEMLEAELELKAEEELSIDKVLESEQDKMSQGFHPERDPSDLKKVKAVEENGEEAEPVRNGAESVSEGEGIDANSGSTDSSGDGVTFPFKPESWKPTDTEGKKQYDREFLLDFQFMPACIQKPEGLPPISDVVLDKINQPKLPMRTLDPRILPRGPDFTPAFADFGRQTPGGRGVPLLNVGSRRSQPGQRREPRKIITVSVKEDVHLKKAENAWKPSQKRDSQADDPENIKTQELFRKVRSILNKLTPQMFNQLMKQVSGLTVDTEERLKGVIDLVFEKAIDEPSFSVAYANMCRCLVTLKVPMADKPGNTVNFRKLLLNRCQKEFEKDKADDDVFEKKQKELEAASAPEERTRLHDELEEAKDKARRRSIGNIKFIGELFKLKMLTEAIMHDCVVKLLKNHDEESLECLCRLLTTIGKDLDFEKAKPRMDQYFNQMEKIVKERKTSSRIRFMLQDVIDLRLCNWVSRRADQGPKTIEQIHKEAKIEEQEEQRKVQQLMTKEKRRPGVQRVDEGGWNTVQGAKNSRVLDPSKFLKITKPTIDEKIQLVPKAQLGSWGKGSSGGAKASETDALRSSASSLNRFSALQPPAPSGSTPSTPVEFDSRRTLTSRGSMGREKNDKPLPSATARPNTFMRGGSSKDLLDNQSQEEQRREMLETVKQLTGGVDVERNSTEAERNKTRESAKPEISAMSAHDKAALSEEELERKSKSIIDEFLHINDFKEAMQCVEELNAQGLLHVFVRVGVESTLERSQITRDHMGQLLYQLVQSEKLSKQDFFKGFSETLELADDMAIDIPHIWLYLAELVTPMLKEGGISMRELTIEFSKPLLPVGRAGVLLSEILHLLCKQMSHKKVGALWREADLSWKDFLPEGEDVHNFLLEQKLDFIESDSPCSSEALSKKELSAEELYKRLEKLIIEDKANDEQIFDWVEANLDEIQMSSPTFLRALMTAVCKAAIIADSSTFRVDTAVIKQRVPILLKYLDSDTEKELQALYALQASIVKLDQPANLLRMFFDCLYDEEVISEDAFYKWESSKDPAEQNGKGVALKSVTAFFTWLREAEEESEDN
# UniProt P55010, whole entry, looked up: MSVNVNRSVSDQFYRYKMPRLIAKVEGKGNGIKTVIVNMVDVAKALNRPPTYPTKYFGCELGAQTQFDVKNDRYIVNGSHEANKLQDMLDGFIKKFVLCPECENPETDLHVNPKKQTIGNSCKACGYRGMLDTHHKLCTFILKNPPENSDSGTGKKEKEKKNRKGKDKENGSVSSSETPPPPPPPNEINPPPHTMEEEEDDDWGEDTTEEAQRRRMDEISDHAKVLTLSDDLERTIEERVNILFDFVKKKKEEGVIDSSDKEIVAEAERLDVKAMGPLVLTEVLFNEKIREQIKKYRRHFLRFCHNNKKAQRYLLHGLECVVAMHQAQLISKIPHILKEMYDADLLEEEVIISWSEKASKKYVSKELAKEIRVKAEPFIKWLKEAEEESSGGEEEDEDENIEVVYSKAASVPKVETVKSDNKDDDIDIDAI
# UniProt Q9Y262, whole entry: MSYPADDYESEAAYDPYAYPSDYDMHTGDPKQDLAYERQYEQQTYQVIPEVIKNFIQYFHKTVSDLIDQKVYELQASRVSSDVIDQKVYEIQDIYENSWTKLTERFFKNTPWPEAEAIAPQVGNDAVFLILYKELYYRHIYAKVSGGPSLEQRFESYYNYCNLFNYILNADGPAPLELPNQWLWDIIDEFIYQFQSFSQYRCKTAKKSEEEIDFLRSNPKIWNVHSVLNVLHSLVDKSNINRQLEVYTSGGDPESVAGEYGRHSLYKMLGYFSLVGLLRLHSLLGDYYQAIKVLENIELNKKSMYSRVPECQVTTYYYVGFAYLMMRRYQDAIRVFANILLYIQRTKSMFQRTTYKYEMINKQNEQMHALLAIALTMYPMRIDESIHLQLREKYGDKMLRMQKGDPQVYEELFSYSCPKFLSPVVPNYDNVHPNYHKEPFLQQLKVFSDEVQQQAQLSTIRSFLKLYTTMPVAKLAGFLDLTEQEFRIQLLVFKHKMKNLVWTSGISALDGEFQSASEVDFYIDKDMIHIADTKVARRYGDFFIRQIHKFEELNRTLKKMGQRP
# UniProt P42566: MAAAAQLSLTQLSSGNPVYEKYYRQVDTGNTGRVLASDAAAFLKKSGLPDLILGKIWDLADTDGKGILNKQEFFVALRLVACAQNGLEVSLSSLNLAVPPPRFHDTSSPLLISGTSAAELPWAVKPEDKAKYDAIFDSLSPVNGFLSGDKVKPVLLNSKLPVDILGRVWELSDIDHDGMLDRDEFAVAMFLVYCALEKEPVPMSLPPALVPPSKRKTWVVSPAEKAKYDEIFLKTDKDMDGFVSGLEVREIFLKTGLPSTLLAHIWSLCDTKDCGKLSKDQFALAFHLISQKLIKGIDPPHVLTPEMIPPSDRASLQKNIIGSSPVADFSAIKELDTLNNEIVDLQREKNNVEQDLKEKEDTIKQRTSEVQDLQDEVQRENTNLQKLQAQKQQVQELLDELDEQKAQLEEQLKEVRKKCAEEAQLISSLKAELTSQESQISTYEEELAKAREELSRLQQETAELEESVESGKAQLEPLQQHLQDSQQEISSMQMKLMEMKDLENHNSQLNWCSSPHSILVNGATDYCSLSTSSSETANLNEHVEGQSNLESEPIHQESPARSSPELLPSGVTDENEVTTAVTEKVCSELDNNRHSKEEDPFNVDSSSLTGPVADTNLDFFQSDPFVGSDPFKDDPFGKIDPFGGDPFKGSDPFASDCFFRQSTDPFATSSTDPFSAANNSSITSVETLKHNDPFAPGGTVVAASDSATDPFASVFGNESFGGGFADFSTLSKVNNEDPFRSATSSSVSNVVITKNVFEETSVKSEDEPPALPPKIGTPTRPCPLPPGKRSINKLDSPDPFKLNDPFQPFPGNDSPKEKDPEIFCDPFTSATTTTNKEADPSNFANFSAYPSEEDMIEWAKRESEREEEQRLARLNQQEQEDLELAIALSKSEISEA
# UniProt P07814: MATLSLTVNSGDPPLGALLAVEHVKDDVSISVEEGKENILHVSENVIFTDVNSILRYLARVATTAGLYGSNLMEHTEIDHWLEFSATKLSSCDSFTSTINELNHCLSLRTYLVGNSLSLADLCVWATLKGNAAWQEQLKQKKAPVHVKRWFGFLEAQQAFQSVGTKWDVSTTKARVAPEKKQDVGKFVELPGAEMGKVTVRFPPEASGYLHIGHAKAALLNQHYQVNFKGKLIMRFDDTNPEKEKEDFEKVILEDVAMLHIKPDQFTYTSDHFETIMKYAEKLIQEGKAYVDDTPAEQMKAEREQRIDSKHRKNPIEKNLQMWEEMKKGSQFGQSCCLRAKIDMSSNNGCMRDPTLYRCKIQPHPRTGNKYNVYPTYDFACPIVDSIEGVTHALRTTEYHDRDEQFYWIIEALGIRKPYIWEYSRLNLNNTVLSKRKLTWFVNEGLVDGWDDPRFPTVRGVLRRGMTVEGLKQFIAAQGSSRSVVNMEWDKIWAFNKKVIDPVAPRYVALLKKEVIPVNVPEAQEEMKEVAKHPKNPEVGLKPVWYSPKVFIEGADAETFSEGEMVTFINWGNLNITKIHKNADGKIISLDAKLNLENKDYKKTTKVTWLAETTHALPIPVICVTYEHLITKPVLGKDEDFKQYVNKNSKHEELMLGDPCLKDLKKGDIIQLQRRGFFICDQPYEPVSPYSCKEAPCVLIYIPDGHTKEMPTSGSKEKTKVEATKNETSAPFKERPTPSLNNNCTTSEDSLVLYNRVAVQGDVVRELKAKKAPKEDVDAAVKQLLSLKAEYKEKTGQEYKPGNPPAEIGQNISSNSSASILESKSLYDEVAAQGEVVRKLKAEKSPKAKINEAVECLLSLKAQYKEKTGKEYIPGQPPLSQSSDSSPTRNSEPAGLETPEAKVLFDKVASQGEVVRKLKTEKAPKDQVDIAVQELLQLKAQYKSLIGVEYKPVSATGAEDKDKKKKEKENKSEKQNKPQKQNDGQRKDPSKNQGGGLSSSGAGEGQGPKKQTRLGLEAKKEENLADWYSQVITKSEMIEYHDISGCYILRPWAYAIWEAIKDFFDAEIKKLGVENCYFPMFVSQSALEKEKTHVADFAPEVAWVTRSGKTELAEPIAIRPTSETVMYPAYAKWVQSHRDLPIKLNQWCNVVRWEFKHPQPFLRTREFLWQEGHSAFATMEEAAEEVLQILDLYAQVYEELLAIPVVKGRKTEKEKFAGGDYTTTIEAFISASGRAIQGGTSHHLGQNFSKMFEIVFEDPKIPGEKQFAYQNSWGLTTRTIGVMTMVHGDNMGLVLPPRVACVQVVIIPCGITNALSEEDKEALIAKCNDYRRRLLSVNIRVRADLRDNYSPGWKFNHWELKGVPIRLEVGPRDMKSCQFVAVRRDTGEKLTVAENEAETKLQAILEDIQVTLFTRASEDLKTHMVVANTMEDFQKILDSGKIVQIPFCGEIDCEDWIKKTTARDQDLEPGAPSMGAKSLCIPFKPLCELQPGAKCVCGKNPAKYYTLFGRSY
# UniProt Q9Y6I3: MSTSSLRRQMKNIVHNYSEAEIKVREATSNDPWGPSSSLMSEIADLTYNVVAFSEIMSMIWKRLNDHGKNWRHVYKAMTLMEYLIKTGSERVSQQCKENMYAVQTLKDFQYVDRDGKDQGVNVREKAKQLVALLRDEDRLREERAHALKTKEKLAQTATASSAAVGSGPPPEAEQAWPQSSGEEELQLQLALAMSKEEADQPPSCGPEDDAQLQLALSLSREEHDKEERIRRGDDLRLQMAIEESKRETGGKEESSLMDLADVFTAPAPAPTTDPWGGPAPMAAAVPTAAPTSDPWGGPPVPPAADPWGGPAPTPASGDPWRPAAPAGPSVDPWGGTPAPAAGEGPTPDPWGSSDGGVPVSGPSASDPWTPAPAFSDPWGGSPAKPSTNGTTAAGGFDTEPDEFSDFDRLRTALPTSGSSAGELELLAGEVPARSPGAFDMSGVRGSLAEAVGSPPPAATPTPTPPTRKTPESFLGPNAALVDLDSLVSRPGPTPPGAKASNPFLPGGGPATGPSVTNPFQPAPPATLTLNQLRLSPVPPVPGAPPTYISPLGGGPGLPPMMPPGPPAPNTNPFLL
# UniProt Q9NZ08: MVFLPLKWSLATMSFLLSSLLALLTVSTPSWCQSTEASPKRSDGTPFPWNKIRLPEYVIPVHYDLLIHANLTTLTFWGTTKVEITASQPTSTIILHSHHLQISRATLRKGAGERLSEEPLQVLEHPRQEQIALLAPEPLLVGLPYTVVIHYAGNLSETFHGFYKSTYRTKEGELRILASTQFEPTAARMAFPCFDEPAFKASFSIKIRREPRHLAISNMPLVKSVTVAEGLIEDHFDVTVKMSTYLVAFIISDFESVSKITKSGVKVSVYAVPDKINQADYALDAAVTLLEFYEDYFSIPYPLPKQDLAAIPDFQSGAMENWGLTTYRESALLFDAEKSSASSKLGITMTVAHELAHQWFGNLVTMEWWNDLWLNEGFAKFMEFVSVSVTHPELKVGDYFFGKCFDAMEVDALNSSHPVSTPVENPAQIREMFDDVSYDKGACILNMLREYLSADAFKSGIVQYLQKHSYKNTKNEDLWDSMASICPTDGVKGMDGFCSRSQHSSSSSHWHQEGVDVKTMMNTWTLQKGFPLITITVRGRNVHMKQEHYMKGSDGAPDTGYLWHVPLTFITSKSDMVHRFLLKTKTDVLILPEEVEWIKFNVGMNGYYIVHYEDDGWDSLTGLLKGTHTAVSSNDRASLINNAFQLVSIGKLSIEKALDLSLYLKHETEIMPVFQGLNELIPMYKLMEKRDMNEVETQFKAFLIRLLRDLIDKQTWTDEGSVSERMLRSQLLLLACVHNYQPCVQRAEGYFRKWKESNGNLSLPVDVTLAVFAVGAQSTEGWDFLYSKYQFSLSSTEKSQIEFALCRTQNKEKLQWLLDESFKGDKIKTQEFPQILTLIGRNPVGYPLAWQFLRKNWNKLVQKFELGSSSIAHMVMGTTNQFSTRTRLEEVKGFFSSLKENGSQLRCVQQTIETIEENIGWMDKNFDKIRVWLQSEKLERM
# Compound: CC1Cc2ccccc2N1C(=O)C1CCCN(C1)C(=O)CCl (mixture of isomers) [TRIM25 ligand 11 (diastereomer mixture)]
# Experiment: probe-labelled cysteine peptide fold change vs DMSO (competition) (log2 fold change); higher = less target engagement (more negative = stronger competition)
# Details: 10 µM; THP-1; incubation time: 4 h
# 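Further: competitive chemoproteomic profiling in live THP-1 cells with an iodoacetamide desthiobiotin (IA-DTB) probe, comparing probe-labelled peptide intensities in compound-treated cells against DMSO-treated controls.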
row,Target,probe-labelled cysteine peptide fold change
1,EIF4G3_O43432_1411_LDFIESDSPCSSEALSK (UniProt O43432),0.109
2,EIF5_P55010_122_QTIGNSCK (UniProt P55010),0.0596
3,EIF3L_Q9Y262_417_GDPQVYEELFSYSCPK (UniProt Q9Y262),-0.255
4,EPS15_P42566_419_CAEEAQLISSLK (UniProt P42566),-0.0743

# Same assay, conditions: 50 µM; THP-1; incubation time: 4 h
row,Target,probe-labelled cysteine peptide fold change
1,EIF4A3_P38919_137_GLLALGDYMNVQCHACIGGTNVGEDIRK (UniProt P38919),0.19
2,EIF4G3_O43432_1471_ALMTAVCK (UniProt O43432),0.131
3,EPRS_P07814_350_IDMSSNNGCMR (UniProt P07814),-0.142
4,EIF5B_O60841_635_APIICVLGHVDTGK (UniProt O60841),-0.152
5,ELMOD2_Q8IZ81_285_GLLLDCNVALTLK (UniProt Q8IZ81),0.319
6,EPRS_P07814_336+337_KGSQFGQSCCLR (UniProt P07814),-0.177
7,EP400_Q96L91_879_EIECFWSNIEQVVEIK (UniProt Q96L91),-0.0992
8,EML4_Q9HC35_82_AVIPMSCITNGSGANR (UniProt Q9HC35),-0.304
9,ENG_P17813_549_TGTLSCTVALRPK (UniProt P17813),-0.0345
10,EIF3F_O00303_134_HSVEVTNCFSVPHNESEDEVAVDMEFAK (UniProt O00303),-0.0526
11,EPRS_P07814_692_RGFFICDQPYEPVSPYSCK (UniProt P07814),-0.176
12,EIF5_P55010_99_FVLCPECENPETDLHVNPK (UniProt P55010),0.0537
13,EML2_O95834_203_CSNEAVLVATFHPTDPTVLITCGK (UniProt O95834),-0.169
14,EPM2A_B3EWF7_192_RRASRAFCPR (UniProt B3EWF7),0.0336
15,EPHX2_P34913_309_GYGESSAPPEIEEYCMEVLCK (UniProt P34913),-0.196
16,EPRS_P07814_680_RGFFICDQPYEPVSPYSCK (UniProt P07814),-0.134
17,ELAC1_Q9H777_266_LCFEADLLIHEATLDDAQMDK (UniProt Q9H777),0.0139
18,ENOPH1_Q9UHY7_202_IADSIGCSTNNILFLTDVTR (UniProt Q9UHY7),0.219

row,Target,probe-labelled cysteine peptide fold change
1,EIF4H_Q15056_85_GFCYVEFDEVDSLK (UniProt Q15056),-0.0183
2,EPN1_Q9Y6I3_205_EEADQPPSCGPEDDAQLQLALSLSR (UniProt Q9Y6I3),0.189
3,EIF4G1_Q04637_1487_ALMTAVCYSAIIFETPLR (UniProt Q04637),0.0271
4,ELF2_Q15723_591_TEGLVTCEK (UniProt Q15723),-0.271
5,EIF3I_Q13347_76_HVLTGSADNSCR (UniProt Q13347),-0.0364
6,EIF4G2_P78344_97_LCLELLNVGVESK (UniProt P78344),0.0844
7,EMC8_O43402_153_CRDPHHDYCEDWPEAQR (UniProt O43402),0.192
8,EPRS_P07814_123_TYLVGNSLSLADLCVWATLK (UniProt P07814),0.0163
9,ELAC2_Q9BQ52_374_FGPDTQHLVLNENCASVHNLR (UniProt Q9BQ52),-0.0344
10,ELANE_P08246_208_QAGVCFGDSGSPLVCNGLIHGIASFVR (UniProt P08246),0.103
11,ERAP1_Q9NZ08_907_CVQQTIETIEENIGWMDK (UniProt Q9NZ08),-0.0636
12,ELP2_Q6IA86_572_LYGHGYEIFCVTCNSSK (UniProt Q6IA86),0.205
13,ENO1_P06733_339_SCNCLLLK (UniProt P06733),0.0482
14,EIF3K_Q9UBQ5_87_CMIDQAHQEERPIR (UniProt Q9UBQ5),0.0963
15,EIF4G3_O43432_1411_LDFIESDSPCSSEALSK (UniProt O43432),0.0435
16,EIF5_P55010_122_QTIGNSCK (UniProt P55010),0.119
17,EIF3L_Q9Y262_417_GDPQVYEELFSYSCPK (UniProt Q9Y262),-0.0691
18,EPS15_P42566_419_CAEEAQLISSLK (UniProt P42566),0.0636

# Source: the supplement of paper PMC12067093, “Discovery and optimisation of a covalent ligand for TRIM25 and its application to targeted protein ubiquitination” (Chemical Science, 2025)
